Source: article PMC5364396

By UniProt entry, the sequences of proteins in these tests, tags left out. Residues count along the entry.
UniProt Q9P2D1, residues 1-1899: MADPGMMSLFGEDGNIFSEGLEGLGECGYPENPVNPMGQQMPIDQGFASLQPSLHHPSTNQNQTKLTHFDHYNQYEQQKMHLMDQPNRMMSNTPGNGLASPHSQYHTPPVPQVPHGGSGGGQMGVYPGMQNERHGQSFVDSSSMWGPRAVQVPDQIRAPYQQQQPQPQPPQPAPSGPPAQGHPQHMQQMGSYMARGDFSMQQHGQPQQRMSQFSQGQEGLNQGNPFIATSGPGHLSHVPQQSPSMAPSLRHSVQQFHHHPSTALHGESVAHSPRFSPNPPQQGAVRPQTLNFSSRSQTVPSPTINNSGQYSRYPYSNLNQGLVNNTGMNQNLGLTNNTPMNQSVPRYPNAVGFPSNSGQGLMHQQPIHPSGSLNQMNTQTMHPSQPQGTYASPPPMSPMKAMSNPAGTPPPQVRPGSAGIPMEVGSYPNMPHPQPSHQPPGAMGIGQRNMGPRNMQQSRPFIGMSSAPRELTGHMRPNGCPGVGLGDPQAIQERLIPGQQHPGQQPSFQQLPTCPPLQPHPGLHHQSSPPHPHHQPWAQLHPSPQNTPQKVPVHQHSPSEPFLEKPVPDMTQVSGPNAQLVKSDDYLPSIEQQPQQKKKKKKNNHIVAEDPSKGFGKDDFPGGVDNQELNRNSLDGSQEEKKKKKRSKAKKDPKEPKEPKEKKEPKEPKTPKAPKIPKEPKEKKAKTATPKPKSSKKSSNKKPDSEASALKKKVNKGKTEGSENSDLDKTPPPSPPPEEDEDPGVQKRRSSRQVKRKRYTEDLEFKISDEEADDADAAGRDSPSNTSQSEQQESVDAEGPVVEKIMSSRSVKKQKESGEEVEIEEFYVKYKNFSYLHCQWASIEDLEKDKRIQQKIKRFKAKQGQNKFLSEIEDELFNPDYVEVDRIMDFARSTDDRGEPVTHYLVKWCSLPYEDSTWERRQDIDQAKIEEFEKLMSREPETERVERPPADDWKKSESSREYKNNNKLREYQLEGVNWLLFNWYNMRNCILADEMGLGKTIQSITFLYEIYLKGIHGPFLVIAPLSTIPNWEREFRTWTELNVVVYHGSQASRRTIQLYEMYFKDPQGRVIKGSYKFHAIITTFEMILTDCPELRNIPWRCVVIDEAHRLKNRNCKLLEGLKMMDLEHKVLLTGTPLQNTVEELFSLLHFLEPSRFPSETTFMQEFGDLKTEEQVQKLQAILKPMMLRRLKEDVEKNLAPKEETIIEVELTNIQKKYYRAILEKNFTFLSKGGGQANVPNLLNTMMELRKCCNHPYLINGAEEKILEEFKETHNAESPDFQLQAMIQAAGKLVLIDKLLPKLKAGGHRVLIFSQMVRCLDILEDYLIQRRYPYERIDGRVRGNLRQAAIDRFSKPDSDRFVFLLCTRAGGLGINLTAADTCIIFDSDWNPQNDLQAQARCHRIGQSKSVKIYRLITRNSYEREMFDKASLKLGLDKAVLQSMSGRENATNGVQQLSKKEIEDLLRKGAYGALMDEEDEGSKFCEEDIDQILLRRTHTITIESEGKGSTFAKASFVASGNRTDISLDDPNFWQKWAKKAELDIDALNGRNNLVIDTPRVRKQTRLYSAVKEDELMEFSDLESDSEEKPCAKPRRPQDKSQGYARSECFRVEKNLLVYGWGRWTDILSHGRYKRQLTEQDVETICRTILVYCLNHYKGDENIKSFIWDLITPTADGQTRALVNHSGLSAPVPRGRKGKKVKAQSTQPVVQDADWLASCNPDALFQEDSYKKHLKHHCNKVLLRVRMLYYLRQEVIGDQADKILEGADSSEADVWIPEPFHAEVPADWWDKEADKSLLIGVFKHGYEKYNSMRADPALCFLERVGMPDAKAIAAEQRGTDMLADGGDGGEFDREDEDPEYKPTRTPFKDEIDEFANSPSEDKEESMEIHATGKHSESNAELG
UniProt Q02880: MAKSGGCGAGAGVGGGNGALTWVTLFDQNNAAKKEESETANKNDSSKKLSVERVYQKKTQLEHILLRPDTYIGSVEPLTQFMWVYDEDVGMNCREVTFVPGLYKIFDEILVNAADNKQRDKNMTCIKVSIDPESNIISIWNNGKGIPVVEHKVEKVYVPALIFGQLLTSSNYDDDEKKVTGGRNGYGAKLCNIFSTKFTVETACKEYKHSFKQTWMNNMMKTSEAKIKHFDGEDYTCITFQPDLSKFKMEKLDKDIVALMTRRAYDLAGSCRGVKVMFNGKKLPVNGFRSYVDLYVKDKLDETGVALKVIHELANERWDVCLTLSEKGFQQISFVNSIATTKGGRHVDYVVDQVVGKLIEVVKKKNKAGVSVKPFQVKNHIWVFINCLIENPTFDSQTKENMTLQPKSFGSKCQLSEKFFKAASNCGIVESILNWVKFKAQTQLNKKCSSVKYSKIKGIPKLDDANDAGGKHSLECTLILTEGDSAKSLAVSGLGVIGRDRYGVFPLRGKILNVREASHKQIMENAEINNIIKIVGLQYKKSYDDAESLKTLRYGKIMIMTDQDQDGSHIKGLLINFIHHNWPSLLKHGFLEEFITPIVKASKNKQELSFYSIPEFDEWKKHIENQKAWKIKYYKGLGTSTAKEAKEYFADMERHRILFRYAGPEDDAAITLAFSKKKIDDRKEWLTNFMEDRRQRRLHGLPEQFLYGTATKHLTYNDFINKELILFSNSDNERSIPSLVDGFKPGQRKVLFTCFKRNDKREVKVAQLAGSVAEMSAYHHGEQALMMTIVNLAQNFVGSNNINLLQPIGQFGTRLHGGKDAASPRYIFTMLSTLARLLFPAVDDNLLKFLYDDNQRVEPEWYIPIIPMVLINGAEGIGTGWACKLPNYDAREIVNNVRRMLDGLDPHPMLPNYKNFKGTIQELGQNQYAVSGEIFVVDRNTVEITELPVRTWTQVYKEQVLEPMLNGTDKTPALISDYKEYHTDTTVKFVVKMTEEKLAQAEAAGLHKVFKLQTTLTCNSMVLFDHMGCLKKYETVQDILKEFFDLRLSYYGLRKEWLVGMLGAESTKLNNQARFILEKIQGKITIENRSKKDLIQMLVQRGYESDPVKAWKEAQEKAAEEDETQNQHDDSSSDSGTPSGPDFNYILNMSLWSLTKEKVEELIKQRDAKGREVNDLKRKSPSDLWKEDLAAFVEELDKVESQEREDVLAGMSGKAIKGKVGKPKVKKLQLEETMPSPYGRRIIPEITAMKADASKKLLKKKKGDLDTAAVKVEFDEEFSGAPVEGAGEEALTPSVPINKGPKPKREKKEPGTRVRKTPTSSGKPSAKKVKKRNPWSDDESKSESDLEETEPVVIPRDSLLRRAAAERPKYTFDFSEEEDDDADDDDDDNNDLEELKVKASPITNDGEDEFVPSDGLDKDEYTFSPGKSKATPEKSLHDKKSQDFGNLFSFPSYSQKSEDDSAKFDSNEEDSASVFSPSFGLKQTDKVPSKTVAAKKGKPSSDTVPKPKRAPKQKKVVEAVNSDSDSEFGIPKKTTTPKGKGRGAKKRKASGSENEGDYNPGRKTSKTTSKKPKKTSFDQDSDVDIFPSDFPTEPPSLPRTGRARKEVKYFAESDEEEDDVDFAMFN
UniProt P51532: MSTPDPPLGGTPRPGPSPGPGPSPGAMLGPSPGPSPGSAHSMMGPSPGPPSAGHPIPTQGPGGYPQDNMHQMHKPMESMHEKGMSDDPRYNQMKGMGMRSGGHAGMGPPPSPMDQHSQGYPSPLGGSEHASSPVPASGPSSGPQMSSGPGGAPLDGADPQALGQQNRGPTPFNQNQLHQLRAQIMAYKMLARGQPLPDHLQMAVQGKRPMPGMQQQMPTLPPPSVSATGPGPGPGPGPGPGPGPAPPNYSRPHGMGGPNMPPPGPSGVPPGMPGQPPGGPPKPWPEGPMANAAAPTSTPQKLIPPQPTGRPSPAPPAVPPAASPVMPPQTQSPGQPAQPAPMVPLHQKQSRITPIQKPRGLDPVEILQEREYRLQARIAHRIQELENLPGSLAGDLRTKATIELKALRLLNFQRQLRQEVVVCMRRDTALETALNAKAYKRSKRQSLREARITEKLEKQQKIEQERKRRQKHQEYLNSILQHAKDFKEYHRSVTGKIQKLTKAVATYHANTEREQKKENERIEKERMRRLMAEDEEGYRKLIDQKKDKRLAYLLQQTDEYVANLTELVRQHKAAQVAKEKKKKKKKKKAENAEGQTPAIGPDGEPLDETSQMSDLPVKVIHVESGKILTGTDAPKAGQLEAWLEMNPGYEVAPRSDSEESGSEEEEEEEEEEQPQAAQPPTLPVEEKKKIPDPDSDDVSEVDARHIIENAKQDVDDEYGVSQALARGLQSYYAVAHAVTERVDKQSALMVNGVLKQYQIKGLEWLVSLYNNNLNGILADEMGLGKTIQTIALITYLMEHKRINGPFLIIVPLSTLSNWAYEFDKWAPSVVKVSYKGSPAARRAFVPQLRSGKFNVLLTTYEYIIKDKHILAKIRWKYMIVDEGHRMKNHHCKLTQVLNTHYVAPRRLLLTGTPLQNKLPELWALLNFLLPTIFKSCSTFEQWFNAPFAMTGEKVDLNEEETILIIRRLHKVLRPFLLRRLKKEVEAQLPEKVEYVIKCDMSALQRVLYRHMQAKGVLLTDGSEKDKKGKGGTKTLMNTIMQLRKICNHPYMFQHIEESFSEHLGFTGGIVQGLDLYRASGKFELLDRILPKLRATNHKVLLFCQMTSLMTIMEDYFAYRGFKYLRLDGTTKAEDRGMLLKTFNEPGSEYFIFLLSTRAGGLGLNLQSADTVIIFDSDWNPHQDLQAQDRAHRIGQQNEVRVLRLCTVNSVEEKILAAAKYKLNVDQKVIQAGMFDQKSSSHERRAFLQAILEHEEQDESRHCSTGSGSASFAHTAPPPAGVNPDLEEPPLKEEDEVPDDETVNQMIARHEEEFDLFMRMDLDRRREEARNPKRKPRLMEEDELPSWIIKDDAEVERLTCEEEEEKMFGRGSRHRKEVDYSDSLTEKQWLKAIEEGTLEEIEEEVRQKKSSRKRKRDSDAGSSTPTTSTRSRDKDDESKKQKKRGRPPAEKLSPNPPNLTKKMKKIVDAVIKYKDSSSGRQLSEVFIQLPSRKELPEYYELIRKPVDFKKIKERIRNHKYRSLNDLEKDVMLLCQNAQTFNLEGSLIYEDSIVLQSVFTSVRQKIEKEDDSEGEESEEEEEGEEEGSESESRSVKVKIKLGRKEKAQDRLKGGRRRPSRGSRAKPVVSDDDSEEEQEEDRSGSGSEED
UniProt P11387: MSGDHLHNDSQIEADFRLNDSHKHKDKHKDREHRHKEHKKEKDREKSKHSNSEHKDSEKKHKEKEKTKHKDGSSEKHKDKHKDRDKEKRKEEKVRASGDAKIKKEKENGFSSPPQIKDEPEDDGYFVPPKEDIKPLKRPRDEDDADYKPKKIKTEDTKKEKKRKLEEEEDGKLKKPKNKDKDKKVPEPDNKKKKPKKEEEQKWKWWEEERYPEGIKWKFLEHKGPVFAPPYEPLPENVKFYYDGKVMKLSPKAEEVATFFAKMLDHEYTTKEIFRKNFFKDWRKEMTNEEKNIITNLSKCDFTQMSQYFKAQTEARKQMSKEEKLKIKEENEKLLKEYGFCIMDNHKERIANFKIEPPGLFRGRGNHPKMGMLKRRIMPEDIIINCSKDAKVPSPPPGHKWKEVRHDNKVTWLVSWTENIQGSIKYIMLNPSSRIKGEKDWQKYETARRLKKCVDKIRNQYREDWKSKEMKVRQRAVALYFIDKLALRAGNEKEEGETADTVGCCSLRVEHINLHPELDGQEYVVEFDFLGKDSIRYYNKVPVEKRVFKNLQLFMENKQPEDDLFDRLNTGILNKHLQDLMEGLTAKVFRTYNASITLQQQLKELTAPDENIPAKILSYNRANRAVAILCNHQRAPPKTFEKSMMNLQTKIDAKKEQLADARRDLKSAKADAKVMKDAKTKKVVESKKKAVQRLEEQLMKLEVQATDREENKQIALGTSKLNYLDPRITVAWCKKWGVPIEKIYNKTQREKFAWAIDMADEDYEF

biological target: Flag-tagged, truncated CHD7 (1-1,899 amino acids) (human) (UniProt Q9P2D1); experiment: affinity purification with mass spectrometry; Flag-tagged CHD7 (1-1,899) precipitated with M2 agarose from Benzonase-treated nuclear extracts of CHD7 KO HEK293T cells; eluted with 3x Flag peptides in IP buffer with 300 mM NaCl; Orbitrap XL; mock: empty vector

| Substance | binding |
| --- | --- |
| CHD8, endogenous in HEK293T (from UniProt Q9HCK8 1-2581) | binds |
| PARP1, endogenous in HEK293T (from UniProt P09874 1-1014) (enzyme) | binds |
| TOP2B (DNA topoisomerase IIb), endogenous in HEK293T (from UniProt Q02880 1-1626) (enzyme) | binds |
| BRG1, endogenous in HEK293T (from UniProt P51532 1-1647) | binds |
| TOP1, endogenous in HEK293T (from UniProt P11387 1-765) (enzyme) | binds |

These are yes or no findings as the source states them, for the method shown. Binding seen in cells or lysates may run through a third protein. Here binding means that the protein was enriched with, or labelled near, the bait; the list need not be complete.
